Data: patent US11166941B2, “Synergistic nutritional compositions for enhancing ATP efficiency” (CELAGENEX RESEARCH (INDIA) PVT. LTD., priority 2020, dated 2021)

Tested on: HepG2 cells
Assay: Estimation of cellular respiration by measuring cellular ATP levels (kit method) in HepG2 cells
Format: cell-based, Human
Details: HepG2, 2 hours treatment, 500 μg/ml
Experimental: The test substances were evaluated for their in vitro effect on cellular energy by measuring cellular ATP levels in human Hepatocytes (HepG2) cell line. In the given experimental conditions, treatment with the test substances improved cellular ATP levels in vitro [J Immunol Methods; 1986; 89: 271-277]; [Proc Nal Acad Sci USA; 2009; 106: 15651-15656].
For test substance ABC, the test substances were combined in the weight ratio of 1:0.05:0.01. A weight of about 10 mg of ABC was dissolved in 100 μl of DMSO and the volume was made up to 1 ml with DMEM-HG (Dulbecco's Modified Eagle Medium High Glucose). For individual test substances A, B and C, about 10 mg of all the test substances were weighed and separately dissolved with 100 μl of DMSO and volume was made up with DMEM-HG supplemented with 2% inactivated FBS to obtain a stock solution of 1 mg/ml concentration. The samples were further sterilized by 0.22 syringe filtration. […]
HepG2 cells were trypsinized from stock culture flasks and the cell count was adjusted to 1.0×10^5 cells/ml to obtain a cell suspension that was seeded into a 6-well plate. […] At the end of the experiment, the optical density was read at 570 nm using microplate reader. From the absorbance values, the cellular ATP levels were estimated using kit protocol and the concentration of cellular ATP in treated groups were determined in comparison to the control groups.

manganese (II) sulphate monohydrate [Manganese-Sulphate (C)]
OD values (treated) @ 570 nm: 0.103
